In the supplement of paper PMC5770031:
The list shows a part of the results. Repeats in this data set agree poorly, so a single value says little.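 Flies heterozygous for the ATM8 allele over a balancer chromosome carrying normal ATM were mated with each other on treated food. Parents laid eggs for 5–6 days and the young then developed for about 12 days, so both parents and larvae ate the compound. The read-out is the share of all emerged adults that carry two ATM8 copies, compared with 2% DMSO control vials. The paper called compounds neutral at 10–20% such offspring, harmful below 10%, and helpful above 20%.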

These compounds were tested on Drosophila melanogaster ATM8 (temperature-sensitive ATM allele) (assay: fraction of eclosed F1 progeny that are homozygous ATM8 (rescue of developmental lethality); higher = more rescue of ATM8 developmental lethality; extreme values may be limits of the assay). Conditions: compound concentration applied to food 0.2 mM; 21 °C.

Structure (SMILES)	fraction of eclosed F1 progeny that are homozygous ATM8
O=C(O)C1CSCN1 (centres undefined)	0.163
CC(C)(S)[C@@H](N)C(=O)O	0.188
C=CCCCCCCCCCCCC(O)CC(O)COC(C)=O (centres undefined)	0
C[C@H]1CC[C@]2(NC1)O[C@H]1C[C@H]3[C@@H]4CC[C@H]5C[C@@H](O[C@@H]6O[C@H](CO)[C@H](O[C@@H]7O[C@H](CO)[C@@H](O)[C@H](O[C@@H]8OC[C@@H](O)[C@H](O)[C@H]8O)[C@H]7O[C@@H]7O[C@H](CO)[C@@H](O)[C@H](O)[C@H]7O)[C@H](O)[C@H]6O)CC[C@]5(C)[C@H]4CC[C@]3(C)[C@H]1[C@@H]2C	0.225
Cc1c(O)c(O)cc2c1CC=C1[C@@]2(C)CC[C@@]2(C)[C@@H]3C[C@](C)(C(=O)O)CC[C@]3(C)CC[C@]12C	0.102
CC(=O)NO	0.025
CC(=O)N[C@@H](CCC(N)=O)C(=O)O	0.167
COc1ccc(-c2c(O)c3c(OC)c4c(cc3oc2=O)OC(C)(C)C=C4)cc1	0.0857
CC(C)(Oc1ccc(Cl)cc1)C(=O)O	0.115
CN1CCCN=C1COC(=O)C(O)(c1ccccc1)C1CCCCC1 (centres undefined)	0.191
O=C1CCO1	0.0506
CCC1(CC)C(=O)NC(=O)NC1=O	0.146
OC[C@@H](O)C(O)[C@H](O)CO	0.0417
CC(C)(Sc1cc(C(C)(C)C)c(O)c(C(C)(C)C)c1)Sc1cc(C(C)(C)C)c(O)c(C(C)(C)C)c1	0.116
COc1cc(-c2coc3cc(OC)c(OC)c(OC)c3c2=O)cc(OC)c1OC	0.0909
CCC(=O)c1ccc(O)cc1	0.188
Nc1c(Br)cc(Br)cc1CN[C@H]1CC[C@H](O)CC1	0.172
Oc1ccc(Cl)c2cccnc12	0.0312
Cn1ccnc1S	0.0263
C[C@]12CCC3c4ccc(OC(=O)c5ccccc5)cc4CCC3C1CCC2=O (some centres undefined)	0.106
O=C[C@H](O)[C@H](O)CO	0.208
N#CC(c1ccc(Cl)cc1)c1c(Cl)cc(-n2ncc(=O)[nH]c2=O)cc1Cl (centres undefined)	0
COc1cc(OC)c(C(=O)CCCN2CCCC2)c(OC)c1	0.0769
CN1CCC(=C2c3ccccc3CC(=O)c3sccc32)CC1	0.0476

Structure (SMILES)	fraction of eclosed F1 progeny that are homozygous ATM8
COc1ccccc1N1CCN(CC(O)COc2cccc3ccccc23)CC1 (centres undefined)	0.102
CCCN(CCC)C(=O)C(CCC(=O)O)NC(=O)c1ccccc1 (centres undefined)	0.12
CCCCC[C@H](CC(=O)O)C(=O)O	0.135
O=c1ccc2ccccc2[nH]1	0.0455
CC[C@H](CC[C@@H](C)[C@H]1CC[C@H]2[C@@H]3CC=C4C[C@@H](O)CC[C@]4(C)[C@H]3CC[C@]12C)C(C)C [beta-SITOSTEROL]	0.188
C[C@@H]1[C@H](O)[C@@H](C)/C=C/C=C/C=C/C=C/C=C/C=C/C=C/[C@H](O[C@@H]2O[C@H](C)[C@@H](O)[C@H](N)[C@@H]2O)C[C@@H]2O[C@](O)(C[C@@H](O)C[C@@H](O)[C@H](O)CC[C@@H](O)C[C@@H](O)CC(=O)O[C@H]1C)C[C@H](O)[C@H]2C(=O)O	0.05
CO[C@@]1(NC(=O)CSCC#N)C(=O)N2C(C(=O)O)=C(CSc3nnnn3C)CS[C@@H]21	0.0286
CC([C@H](O)c1ccccc1)N(C)C (some centres undefined)	0.25
Cc1ncc(C[n+]2csc(CCO)c2C)c(=O)[nH]1	0.11
CCOC(=O)C(C)(C)Oc1ccc(Cl)cc1	0.185
CN1CCc2cccc3c2[C@H]1Cc1ccc(O)c(O)c1-3	0.0303
COc1ccc(OC)c(C(O)C(C)N)c1 (centres undefined)	0.158
CCC(Cc1c(I)cc(I)c(N)c1I)C(=O)O (centres undefined)	0
CCC(NC(C)C)C(O)c1ccc(O)c(O)c1 (centres undefined)	0.143
C[C@]12CC[C@@H]3c4ccc(O)cc4CC[C@H]3[C@@H]1CC[C@@H]2OC(=O)CCC1CCCC1	0.2
O=C1C=C2CC3(O)COc4c(ccc(O)c4O)C3=C2C=C1O (centres undefined)	0.157
CN1CC(=O)NC1=N	0.22
NCCCCNCCCN	0.14
CC(C)(C(=O)c1cccnc1)c1cccnc1	0.192
CC(=O)N(O)CCCCCNC(=O)CCC(=O)N(O)CCCCCNC(=O)CCC(=O)N(O)CCCCCN	0.0727
C=CC(C)(O)CCC1C(=C)CC(O)C2C(C)(C)CCCC12C (centres undefined)	0.0513
CCNC(=O)CC[C@H](N)C(=O)O	0.103
OC[C@H]1O[C@@H]2O[C@H]3[C@H](O)[C@@H](O)[C@@H](O[C@H]4[C@H](O)[C@@H](O)[C@@H](O[C@H]5[C@H](O)[C@@H](O)[C@@H](O[C@H]6[C@H](O)[C@@H](O)[C@@H](O[C@H]7[C@H](O)[C@@H](O)[C@@H](O[C@H]8[C@H](O)[C@@H](O)[C@@H](O[C@H]1[C@H](O)[C@H]2O)O[C@@H]8CO)O[C@@H]7CO)O[C@@H]6CO)O[C@@H]5CO)O[C@@H]4CO)O[C@@H]3CO [beta-CYCLODEXTRIN]	0.0727
CC(C)/N=c1\cc2n(-c3ccc(Cl)cc3)c3ccccc3nc-2cc1Nc1ccc(Cl)cc1	0.222

In a second layout: entries from further up.

| Structure (SMILES) | fraction of eclosed F1 progeny that are homozygous ATM8 |
| --- | --- |
| Oc1ccc(Cl)c2cccnc12 | 0.0312 |
| Cn1ccnc1S | 0.0263 |
| C[C@]12CCC3c4ccc(OC(=O)c5ccccc5)cc4CCC3C1CCC2=O (some centres undefined) | 0.106 |
| O=C[C@H](O)[C@H](O)CO | 0.208 |
| N#CC(c1ccc(Cl)cc1)c1c(Cl)cc(-n2ncc(=O)[nH]c2=O)cc1Cl (centres undefined) | 0 |
| COc1cc(OC)c(C(=O)CCCN2CCCC2)c(OC)c1 | 0.0769 |
| CN1CCC(=C2c3ccccc3CC(=O)c3sccc32)CC1 | 0.0476 |
| COc1ccccc1N1CCN(CC(O)COc2cccc3ccccc23)CC1 (centres undefined) | 0.102 |
| CCCN(CCC)C(=O)C(CCC(=O)O)NC(=O)c1ccccc1 (centres undefined) | 0.12 |
| CCCCC[C@H](CC(=O)O)C(=O)O | 0.135 |
| O=c1ccc2ccccc2[nH]1 | 0.0455 |
| CC[C@H](CC[C@@H](C)[C@H]1CC[C@H]2[C@@H]3CC=C4C[C@@H](O)CC[C@]4(C)[C@H]3CC[C@]12C)C(C)C [beta-SITOSTEROL] | 0.188 |
| C[C@@H]1[C@H](O)[C@@H](C)/C=C/C=C/C=C/C=C/C=C/C=C/C=C/[C@H](O[C@@H]2O[C@H](C)[C@@H](O)[C@H](N)[C@@H]2O)C[C@@H]2O[C@](O)(C[C@@H](O)C[C@@H](O)[C@H](O)CC[C@@H](O)C[C@@H](O)CC(=O)O[C@H]1C)C[C@H](O)[C@H]2C(=O)O | 0.05 |
| CO[C@@]1(NC(=O)CSCC#N)C(=O)N2C(C(=O)O)=C(CSc3nnnn3C)CS[C@@H]21 | 0.0286 |
| CC([C@H](O)c1ccccc1)N(C)C (some centres undefined) | 0.25 |
| Cc1ncc(C[n+]2csc(CCO)c2C)c(=O)[nH]1 | 0.11 |
| CCOC(=O)C(C)(C)Oc1ccc(Cl)cc1 | 0.185 |
| CN1CCc2cccc3c2[C@H]1Cc1ccc(O)c(O)c1-3 | 0.0303 |
| COc1ccc(OC)c(C(O)C(C)N)c1 (centres undefined) | 0.158 |
| CCC(Cc1c(I)cc(I)c(N)c1I)C(=O)O (centres undefined) | 0 |
| CCC(NC(C)C)C(O)c1ccc(O)c(O)c1 (centres undefined) | 0.143 |
| C[C@]12CC[C@@H]3c4ccc(O)cc4CC[C@H]3[C@@H]1CC[C@@H]2OC(=O)CCC1CCCC1 | 0.2 |
| O=C1C=C2CC3(O)COc4c(ccc(O)c4O)C3=C2C=C1O (centres undefined) | 0.157 |
| CN1CC(=O)NC1=N | 0.22 |
| NCCCCNCCCN | 0.14 |
| CC(C)(C(=O)c1cccnc1)c1cccnc1 | 0.192 |
| CC(=O)N(O)CCCCCNC(=O)CCC(=O)N(O)CCCCCNC(=O)CCC(=O)N(O)CCCCCN | 0.0727 |
| C=CC(C)(O)CCC1C(=C)CC(O)C2C(C)(C)CCCC12C (centres undefined) | 0.0513 |

The results go on:

Structure (SMILES)	fraction of eclosed F1 progeny that are homozygous ATM8
O=C1Cc2cc(CCN3CCN(c4nsc5ccccc45)CC3)c(Cl)cc2N1	0.0455
O=C1C(Cl)=C(Cl)C(=O)C(Cl)=C1Cl	0.0444
CC1CCc2c(N3CCC(O)CC3)c(F)cc3c(=O)c(C(=O)O)cn1c23 (centres undefined)	0.13
C[C@@H]1CC[C@]2(NC1)O[C@H]1C[C@H]3[C@@H]4CC=C5C[C@@H](O)CC[C@]5(C)[C@H]4CC[C@]3(C)[C@H]1[C@@H]2C	0.163
Clc1ccc(COC(Cn2ccnc2)c2ccc(Cl)cc2Cl)c(Cl)c1 (centres undefined)	0.0385
O=C(O)c1cc(O)c2c(c1)[C@@H]([C@H]1c3cc(C(=O)O)cc(O)c3C(=O)c3c(O[C@@H]4O[C@H](CO)[C@@H](O)[C@H](O)[C@H]4O)cccc31)c1cccc(O[C@@H]3O[C@H](CO)[C@@H](O)[C@H](O)[C@H]3O)c1C2=O	0.241
O=c1c2ccccc2oc2ccccc12	0.0625
CO[C@H]1O[C@@H]2O[C@@]3(C)CC[C@H]4[C@H](C)CC[C@@H]([C@H]1C)[C@@]24OO3	0.333
CN1CCN(C2=Nc3cc(Cl)ccc3Nc3ccccc32)CC1	0.263
CCCCCCCCCCCCCCCC(=O)NCCO	0.0256
C=C1C2CC[C@@]3(C)[C@H](c4ccoc4)OC(=O)C[C@]13O[C@H]1CC(O)C(C)(C)C(CC(=O)OC)[C@@]21C (stereo partly drawn) [3alpha-HYDROXY-3-DEOXYANGOLENSIC ACID METHYL ESTER]	0.163
CC(=O)O[C@H]1CC[C@]2(C)C3=C(CC[C@H]2C1(C)C)[C@]1(C)CC[C@H]([C@H](C)CCC=C(C)C)[C@@]1(C)CC3	0.225
Nc1ncnc(Nc2ccc(Cl)cc2)n1	0.103
O=C(O)c1ccccc1Nc1ccccc1	0.0909
Oc1ccc(Cl)cc1Cc1cc(Cl)ccc1O	0.234
NS(=O)(=O)c1cc(C(=O)O)c(NCc2ccco2)cc1Cl	0.04
COc1ccc2oc(-c3ccccc3)c(OC)c(=O)c2c1	0.118
O=C(O)c1cc(=O)c2ccccc2o1	0.14
CC(=O)CC(=O)CCC(=O)O	0.122
Cl[C@H]1[C@H](Cl)[C@@H](Cl)[C@@H](Cl)[C@H](Cl)[C@H]1Cl	0.235
Cc1cc(C2CCCCC2)n(O)c(=O)c1	0.082
O=C(O)c1cc2cc(Cl)ccc2[nH]1	0.17
C[C@H](N)C(=O)NC(Cc1ccccc1)C(=O)O (mixture of isomers)	0.265
CN[C@H](CC(C)C)C(=O)N[C@H]1C(=O)N[C@@H](CC(N)=O)C(=O)N[C@H]2C(=O)N[C@H]3C(=O)N[C@H](C(=O)N[C@H](C(=O)O)c4cc(O)cc(O)c4-c4cc3ccc4O)[C@H](O)c3ccc(c(Cl)c3)Oc3cc2cc(c3O[C@@H]2O[C@H](CO)[C@@H](O)[C@H](O)[C@H]2O[C@H]2C[C@](C)(N)[C@H](O)[C@H](C)O2)Oc2ccc(cc2Cl)[C@H]1O	0.0417

Structure (SMILES)	fraction of eclosed F1 progeny that are homozygous ATM8
CNS(=O)(=O)Cc1ccc2[nH]cc(CCN(C)C)c2c1	0
NS(=O)(=O)c1cc2c(cc1Cl)N=CNS2(=O)=O	0.111
C#CCCCCCCCCCCCC(O)CC(O)CO.C=CCCCCCCCCCCCC(O)CC(O)CO (centres undefined)	0.333
CCOc1ccc2c(c1)C(C)=CC(C)(C)N2	0.148
CCC(CCC(C)C1CCC2C3CCC4CC(O)CCC4(C)C3CCC12C)C(C)C (centres undefined)	0.238
C=NC(C(=O)NC1C(=O)N2C1SC(C)(C)C2C(=O)O)c1ccccc1 (centres undefined)	0.148
CC(C)COCC(CN(Cc1ccccc1)c1ccccc1)N1CCCC1 (centres undefined)	0.0235
CC(O)CN1CCN(CC(=O)[O-])CCN(CC(=O)[O-])CCN(CC(=O)[O-])CC1.[Gd+3] (centres undefined)	0.0545
O=C(Nc1ccc(C(=O)O)c(O)c1)c1ccccc1	0.025
CCCCOC(=O)c1ccc(N)cc1	0.25
CC[C@H]1OC(=O)[C@H](C)[C@@H](O[C@H]2C[C@@](C)(OC)[C@@H](O)[C@H](C)O2)[C@H](C)[C@@H](O[C@@H]2O[C@H](C)C[C@H](N(C)C)[C@H]2O)[C@](C)(OC)C[C@@H](C)C(=O)[C@H](C)[C@@H](O)[C@]1(C)O	0.0889
CCCCC1=NC2(CCCC2)C(=O)N1Cc1ccc(-c2ccccc2-c2nnn[nH]2)cc1	0.211
C[C@H]1COC2=C1C(=O)C(=O)c1c2ccc2c1CCCC2(C)C	0.255
CCOc1ccc(C(=O)c2ccc(OC)c(O)c2O)cc1	0.152
CCCC(C)(COC(N)=O)COC(=O)NC(C)C (centres undefined)	0.0286
NC1(C(=O)O)CCC1	0.133
COc1ccc(Cc2cnc(N)nc2N)cc1OC	0.0571
COC(C)(C)CCC[C@H](C)C/C=C/C(C)=C/C(=O)OC(C)C	0.105
C[N+]1(C)CCCC(OC(=O)C(O)(c2ccccc2)c2ccccc2)C1 (centres undefined)	0.152
CNCC[C@H](Oc1cccc2ccccc12)c1cccs1	0.164
COc1cc(OC)c(OC)cc1C=O	0.294
CO[C@@]1(NC(=O)Cc2cccs2)C(=O)N2C(C(=O)O)=C(COC(N)=O)CS[C@@H]21	0.138
